Key:
[1] = test system: MCF-7 cells; assay: Real-time live confocal microscopy, MCF-7; type: cell-based, human; details: MCF-7, 20 μM
[2] = test system: SKBr3 cells; assay: Real-time live confocal microscopy, SKBr3; type: cell-based, human; details: SKBr3, 20 μM

CCC(=C(c1ccc(O)cc1)c1ccc(C=CC(=O)OCCC[CH]2[CH2][Pt-]2([Cl])([Cl])[Cl])cc1)c1ccccc1.[K+] (mixture of isomers) [GW7604-Pent-PtCl3, Potassium trichlorido[η^2-(pent-4-en-1-yl (E)-3-(4-((E/Z)-1-(4-hydroxyphenyl)-2-phenylbut-1-en-1-yl)phenyl)acrylate)]platinate(II)]
intracellular fluorescence / vesicles [1]: fluorescent vesicles were detected | diameter of vesicles ([1]; 48 h): 2.80 ± 0.89 μm | intracellular fluorescence / vesicles [2]: only extremely low fluorescence

Reference: article PMC10983001, “Development of Cytotoxic GW7604-Zeise’s Salt Conjugates as Multitarget Compounds with Selectivity for Estrogen Receptor- Positive Tumor Cells” (Journal of Medicinal Chemistry, 2024)
